EC50 data for one molecule are collected here from PMC2765639 (PLoS Neglected Tropical Diseases, 2009).

Each structure is given as a SMILES string. Like-named read-outs stand apart in the source and are kept apart here.

The subject of test [1] is L. major axenic amastigote-like population. The test can be described thus: L. major axenic amastigote-like alamar blue assay (pH 4.9). The format is cell-based. The note with it: Leishmania major; pH 4.9, 144 h, 32°C; read-out: L. major axenic amastigote-like EC50 (AVE±SD) Confirmation Alamar Blue.
In test [2] the test system is L. major promastigotes. The test can be described thus: Flow cytometer-based growth inhibition and cytotoxicity assay. Conditions: Leishmania major, 48 h, read-out: L. major promastigote EC50 (AVE±SD) Confirmation Flow Cytometry.
Test [3] relates to L. major promastigotes. Description: L. major promastigote drug susceptibility assay (alamar blue, 384-well). The format is cell-based. Conditions: Leishmania major. The procedure: Promastigotes were grown in vented T75 tissue culture flasks and maintained at 28°C. Promastigote cultures were initiated at 10^5 parasites per mL and subcultured every 3–4 days. L. major promastigote counts were performed in duplicate using a hemocytometer and particle counter (Beckman Coulter, Fullerton, CA). For HTS assays, L. major promastigote cultures were harvested during exponential growth phase (∼2.0–3.0×10^7 parasites/mL) and were not maintained past passage 20.
The final test compound concentration was 10 µM with a constant DMSO concentration of 1% in each assay well.
The L. major promastigote drug susceptibility assay was performed in a final volume of 25 µL using our previously described 384-well microtiter plate format,[39]. For automated HTS procedures, L. major promastigotes (5,000 parasites/22 µL) in complete growth medium were seeded into each well of the microtiter plates using a MAPC2 bulk dispenser (Titertek, Huntsville, AL). Test and control compounds (3 µL) were added to individual wells using a Velocity 11 V-prep (Menlo Park, CA) liquid handling system, equipped with a 384-well dispensing head, followed by centrifugation at 50 g for 1 min. […] Assay plates were allowed to incubate for 44 h at 28°C in the presence of 5% CO2. Five µL of alamar blue reagent were added to each assay plate well and incubated for 4 h at 28°C with 5% CO2. […]
(The colour change of resazurin is a common sign of viable cells or microbes.)

The test system of the next test is A549. The test can be described thus: Mammalian cell line specificity assay (alamar blue). The note with it: Homo sapiens. The format is cell-based. On the procedure:
(§1) Mammalian cells were cultured and maintained according to ATCC specifications (ATCC, Manassas, VA). Cell line drug susceptibility assays were performed in final volumes of 25 µL using our previously described 384-well microtiter plate format,[39]. Briefly, for automated HTS procedures, cells (A549, IMR-90 and, HeLa, 1,000 cells; PC-3, 750 cells and; MDA-MB-231, 3,000 cells) in complete culture medium were seeded into each well of 384-well microtiter plates using a Titertek MAPC-2 bulk dispenser. Test and control compounds were added to individual wells as described above. Vehicle and positive controls were 1% DMSO and 10% DMSO, respectively (final well concentrations). Assay plates were incubated for 44–46 h at 37°C in the presence of 5% CO2 and growth inhibitory effects were determined as described above. Five µL of alamar blue reagent was added to each well and incubated for 2–4 h. Data were captured as described above.

Another test concerns PC-3. The description is as above. The format is cell-based. The note with it: Homo sapiens, 44–46 h, read-out: PC-3 EC50 (AVE±SD). The procedure: as §1
Another test concerns MDA-MB-231. Described as above. The format is cell-based. The note with it: Homo sapiens, 44–46 h, read-out: MDA EC50 (AVE±SD). The procedure: as §1
Another test deals with HeLa. Described as above. The format is cell-based. The note with it: Homo sapiens, 44–46 h, read-out: HeLa EC50 (AVE±SD). The procedure: as §1
In another test the test system is IMR-90. The description is as above. The format is cell-based. The note with it: Homo sapiens, 44–46 h, read-out: IMR90 EC50 (AVE±SD). The procedure: as §1

For `Clc1ccccc1C(c1ccccc1)(c1ccccc1)n1ccnc1` [Clotrimazole, reference compound], the EC50 – broadly, the concentration needed to bring the measured effect to its halfway point – in test [1] was 750 ± 200 nM; with L. major promastigotes [2] it was 290 ± 120 nM; in the test on L. major promastigotes [3] (48 h, compounds from commercial supplier, 44 h + 4 h alamar blue, 28°C, read-out: L. major promastigote EC50 (AVE±SD) Confirmation Alamar Blue), 220 ± 110 nM; with L. major promastigotes [3] (Table S1, PMLSC library samples, 10-point 0.01–5.00 µM, read-out: EC50 Ave ± SD, Lm), 147 ± 30 nM; in the test with A549 (44–46 h, alamar blue, read-out: A549 EC50 (AVE±SD)) it was above 50000 nM; with A549 (Table S1, PMLSC library samples, read-out: EC50 Ave ± SD, A549), above 5000 nM. The EC50 with PC-3, in the test with MDA-MB-231, in the test on HeLa and with IMR-90 was above 50000 nM in each case.
